Data taken from PubChem BioAssay AID1745848, deposited by NCATS (2022).

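HEK-293 cells carrying an ATXN2-luciferase reporter; luminescence signal loss after 24 h of compound exposure, with a parallel cell viability readout. Compounds were tested as a dilution series from about 0.0037 to 57 µM. The number is the fitted half-maximal inhibitory concentration (AC50); a lower value means a more potent inhibitor. Calls come from curve class and activity score: actives score 40–100, while inconclusive compounds (weak, partial, poorly fitted or single-point curves) score 1–39.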

Values are in nM. All entries here are filed as inconclusive. These entries are mostly ones the record files as inconclusive; other results of the assay are not listed here. Potencies fitted to partial, single-point or poorly fitting curves are rough. Activity scores are not listed here.

With Cc1c2ccncc2c(C)c2c1[nH]c1ccccc12 the assay gave Potency 14125 nM (inhibitor, partial curve, poor fit).
With COc1ccc(C2=NN(C(=O)c3ccc(Cl)c([N+](=O)[O-])c3)C(c3ccccc3)C2)cc1 (stereo not drawn) the assay gave Potency 31622 nM (inhibitor, single point).
With CC1(C)Cc2c(ccc3ccccc23)C2=C(C(=O)N3CCCC3)C(=O)C(=O)N21 the assay gave Potency 19952 nM (inhibitor, partial curve, poor fit).
With COc1ccc(C(=O)/C=C/c2ccc(OC3CSC3)cc2)cc1OC the assay gave Potency 2818 nM (inhibitor, partial curve).
With Cc1cc(C)c(O)c(CN(C)Cc2cc(Cl)cc(Cl)c2O)c1 the assay gave Potency 25118 nM (inhibitor, partial curve, poor fit).
With CCN(CC(=O)NC(C)(C)C)Cc1nc2c(Br)cc(Br)cc2c(=O)[nH]1 the assay gave Potency 39810 nM (inhibitor, single point).
With COc1ccc(-c2sc3ccc(OC)cc3c2-c2ccc(O)cc2)cc1 the assay gave Potency 1585 nM (inhibitor, partial curve).
With O=C(c1ccco1)N1CCN(c2ccnc3cc(Cl)ccc23)CC1 the assay gave Potency 5623 nM (inhibitor, partial curve).
With CCN1CCN(CCNC(=O)c2ccc(/C=C3/Sc4ccccc4N(Cc4cccc(C)c4)C3=O)cc2)CC1 the assay gave Potency 31622 nM (inhibitor, single point).
With COc1cc(/C=N/Nc2ccc(Cl)c(C(=O)O)c2)ccc1OC(=O)c1ccco1 the assay gave Potency 3162 nM (inhibitor, single point).
With Cc1ccc2nc(NC(=O)/C=C/c3ccc4c(c3)OCO4)sc2c1 the assay gave Potency 1995 nM (inhibitor, full curve, poor fit).
With Cc1cccc(/C=N/NC(=O)c2cccc(Cl)c2)n1 the assay gave Potency 3548 nM (inhibitor, partial curve).
With CCCS(=O)(=O)c1c(S(=O)(=O)CCC)c2c(C)cccn2c1C(=O)N/N=C/c1cc(O)cc(O)c1 the assay gave Potency 10000 nM (inhibitor, partial curve, poor fit).
With Cc1ccc(OCC(=O)c2cc(C)n(Cc3cccs3)c2C)c([N+](=O)[O-])n1 the assay gave Potency 6310 nM (inhibitor, partial curve, poor fit).
With C=CCc1cccc(CNc2nc3ccccc3n2C(C)C)c1O the assay gave Potency 31622 nM (inhibitor, partial curve, poor fit).
With CCCCN(C=O)c1c(CC)nc2ccc(C(=O)Nc3cc(-c4ccccc4)ccc3OC)cn12 the assay gave Potency 28183 nM (inhibitor, partial curve, poor fit).
With CC(C)Nc1nc(NC(C)C)nc(N(C#N)CCOc2ccc(Cl)cc2Cl)n1 the assay gave Potency 2512 nM (inhibitor, partial curve, poor fit).
With c1ccc(CNc2c3c(nc4ccccc24)CCC3)cc1 the assay gave Potency 28183 nM (inhibitor, single point).
With Cc1nn(Cc2ccc(Cl)cc2)c(C)c1NC(=O)c1noc2c1CCc1ccccc1-2 the assay gave Potency 25118 nM (inhibitor, partial curve, poor fit).
With CC(C)CC[n+]1ccn(C2=C([O-])c3ccccc3C(=O)/C2=N\S(=O)(=O)c2ccccc2)c1 the assay gave Potency 5623 nM (inhibitor, partial curve, poor fit).
With Cc1ccnc(NC(=O)CCCc2c[nH]c3ccccc23)c1 the assay gave Potency 3162 nM (inhibitor, single point).
With Cc1ccc(Cl)cc1N1CCN(C(=O)CCS(=O)(=O)c2ccc3c(c2)NC(=O)CO3)CC1 the assay gave Potency 28183 nM (inhibitor, partial curve, poor fit).
With O=C(CSc1nc2ncc(Cl)cc2[nH]1)Nc1cccc(F)c1 the assay gave Potency 12589 nM (inhibitor, partial curve, poor fit).
With O=[N+]([O-])c1ccccc1S(=O)c1ccccc1[N+](=O)[O-] the assay gave Potency 28183 nM (inhibitor, single point).
With O=[N+]([O-])c1cc(Cl)cc(/C=N\Nc2ccccn2)c1O the assay gave Potency 2512 nM (inhibitor, full curve, poor fit).

Repeated from the top, 2 entries:

* Cc1c2ccncc2c(C)c2c1[nH]c1ccccc12 | Potency 14125 nM (inhibitor, partial curve, poor fit)
* COc1ccc(C2=NN(C(=O)c3ccc(Cl)c([N+](=O)[O-])c3)C(c3ccccc3)C2)cc1 (stereo not drawn) | Potency 31622 nM (inhibitor, single point)